Values from PubChem BioAssay AID504784 (Drosophila RNAi Screening Center, 2011).
Assay: 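Fly genes whose silencing alters how much lipid cells keep in droplets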 (primary screen). System: Drosophila Kc167 embryonic cells. Reagents: long dsRNA against Drosophila genes, about 250 ng dsRNA per well. Time to read-out: 4 days. Treatment: cells fed 400 µM oleic acid bound to BSA. Detection: 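Microscope images give a droplet-to-nucleus area ratio, taken as log and converted to a screen-wide B-score; higher values mean greater lipid storage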. Scale: droplet/nuclear area B-score: higher = more stored lipid (overstorage).
In all, the deposit lists about 17,000 reagents; this is a random part of those that have a named target and a result. 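Each column is one replicate's B-score; the combined score over replicates was not deposited, so single values may mislead.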 Reagents against one gene are numbered here.

gene | dsRNA no. | droplet/nuclear area B-score, replicate 1 | droplet/nuclear area B-score, replicate 2 | droplet/nuclear area B-score, replicate 3
Dic3 | 1 | -0.616 | -1.15 | –
CG7856 | 1 | -2.54 | 0.119 | –
mrn | 1 | -0.581 | 0.142 | -0.213
Teh3 | 1 | 0.0275 | 1.05 | –
unpg | 1 | -0.714 | -0.0195 | –
CG3078 | 1 | 0.219 | 0.685 | –
eIF4E4 | 1 | 2.82 | 0.725 | –
CG31275 | 1 | 0.112 | -0.198 | –
Ser7 | 1 | 0.0205 | -0.3 | 0.572
subdued | 1 | -0.0237 | 1.5 | –
CG14695 | 1 | 0.00634 | 1.46 | –
Tango1 | 1 | 4.94 | 3.57 | –
CG13157 | 1 | -0.552 | – | –
CG14480 | 1 | -0.118 | -0.933 | –
alphaCOP | 1 | 4.8 | 9.06 | –
Lpt | 1 | 0.0587 | -1.3 | –
Lpt | 2 | -1.92 | -0.444 | –
CG6628 | 1 | -0.28 | -1.06 | –
Dek | 1 | -1.37 | 0.0953 | –
CG1208 | 1 | -0.604 | -0.798 | –
CG13884 | 1 | -1.34 | 0.23 | –
myd | 1 | 1.86 | -4.32 | –
myd | 2 | -0.343 | – | –
grau | 1 | 4.73 | 2.07 | –
CG13707 | 1 | -0.581 | -0.589 | –
Gel | 1 | -1.06 | -0.613 | -0.445
CG15767 | 1 | 0.82 | – | –
jtb | 1 | -0.338 | 0.677 | –
CG10862 | 1 | 0.642 | -0.339 | –
Uba1 | 1 | -2.5 | -1.71 | –
msk | 1 | 1.42 | 0.157 | –
Yip1d1 | 1 | 6.28 | -0.832 | –
Txl | 1 | -1.94 | -1.93 | –

A stretch of the results above, as a working copy:
gene | dsRNA no. | droplet/nuclear area B-score, replicate 1 | droplet/nuclear area B-score, replicate 2 | droplet/nuclear area B-score, replicate 3
Lpt | 1 | 0.0587 | -1.3 | –
Lpt | 2 | -1.92 | -0.444 | –
CG6628 | 1 | -0.28 | -1.06 | –
Dek | 1 | -1.37 | 0.0953 | –
CG1208 | 1 | -0.604 | -0.798 | –
CG13884 | 1 | -1.34 | 0.23 | –

Further reagents follow.
gene | dsRNA no. | droplet/nuclear area B-score, replicate 1 | droplet/nuclear area B-score, replicate 2 | droplet/nuclear area B-score, replicate 3
Prp39 | 1 | 0.568 | – | –
Ugt37C1 | 1 | -0.769 | -0.0401 | –
CG32024 | 1 | 0.00115 | 1.33 | –
Grip | 1 | -3.53 | -1.27 | –
Grip | 2 | 0.678 | 0.669 | –
Idgf5 | 1 | 1.2 | 0.552 | –
CG4982 | 1 | 0.048 | 2.84 | –
CG10026 | 1 | -0.0514 | -0.0438 | –
Dip-B | 1 | -2.89 | 0.857 | –
Doc1 | 1 | -0.153 | 1.31 | –
aust | 1 | -1.24 | -0.498 | –
CG31343 | 1 | -0.0587 | 1.99 | –
CG11961 | 1 | 0.429 | -0.699 | –
kermit | 1 | 0.448 | -0.418 | –
CG4611 | 1 | 0.253 | -0.498 | –
CG3793 | 1 | 0.227 | -0.304 | –
P5cr | 1 | 1.07 | -0.116 | –
CG13982 | 1 | -0.0096 | 1.08 | –
Cbp53E | 1 | 0.791 | -3.56 | –
CG13842 | 1 | 0.401 | -0.337 | –
Fs | 1 | -0.0596 | -1.1 | –
Fs | 2 | 0.802 | -0.674 | –
Npc2d | 1 | 0.135 | 0.0283 | –
CG4537 | 1 | 0.819 | -1.78 | –
CG32160 (retired record) | 1 | 0.0543 | -2.58 | –
ND-49L | 1 | 0.414 | 1.11 | –
LManI | 1 | -5.47 | 0.0074 | –
Npc1b | 1 | 1.75 | 1.4 | –
Trf4-1 | 1 | -3.46 | 0.826 | –
Fkbp14 | 1 | 0.215 | 0.23 | –
GPHR | 1 | -0.251 | 0.313 | –
CG5402 | 1 | 1.97 | 0.77 | –
Muc68Ca | 1 | 0.0218 | 0.478 | –
Muc68Ca | 2 | 0.991 | 0.262 | –
CG3698 | 1 | 1.86 | -0.0276 | -0.787
CG14223 | 1 | -0.165 | -1.14 | –
Dbp73D | 1 | 0.509 | -0.439 | -1.7
Swip-1 | 1 | 0.0667 | 0.232 | –
Swip-1 | 2 | -1.6 | 0.429 | –
lin-52 | 1 | 0.175 | 0.494 | –
CG9822 | 1 | -0.582 | 3.07 | –
brk | 1 | 2.53 | 1.36 | –
brk | 2 | 0.119 | 1.51 | –
CG14855 | 1 | -0.11 | 1.23 | –
Cp7Fc | 1 | -0.0377 | -0.293 | –
polyph | 1 | -1.63 | -1.16 | –
Nup107 | 1 | 0.445 | -0.0266 | –
Prat | 1 | 1.97 | -0.0753 | –
LManIV | 1 | 0.667 | -0.415 | –
CG10959 | 1 | 2.99 | -3.48 | 0.675
